Experimental data: PMC7181755
These are yes or no findings as the source states them, for the method shown. Binding seen in cells or lysates may run through a third protein. Some entries that bind do so weakly or less than the wild type. Tags and fused reporters may be left off the sequences shown.

By UniProt entry, the sequences of proteins in these tests, tags left out.
UniProt Q9UIJ5: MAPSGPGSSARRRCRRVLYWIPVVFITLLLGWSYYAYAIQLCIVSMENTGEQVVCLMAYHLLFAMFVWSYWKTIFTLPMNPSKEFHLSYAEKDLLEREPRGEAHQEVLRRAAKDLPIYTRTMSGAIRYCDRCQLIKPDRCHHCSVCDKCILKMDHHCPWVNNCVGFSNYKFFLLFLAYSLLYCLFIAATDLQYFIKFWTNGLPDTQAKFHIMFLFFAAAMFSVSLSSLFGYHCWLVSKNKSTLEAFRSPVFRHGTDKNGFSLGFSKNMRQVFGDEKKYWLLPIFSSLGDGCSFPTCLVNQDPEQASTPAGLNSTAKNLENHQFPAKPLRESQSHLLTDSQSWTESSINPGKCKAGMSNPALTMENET

Biological target: T1, 3×Flag-tagged GSDME (UniProt O60443)
T1 sequence: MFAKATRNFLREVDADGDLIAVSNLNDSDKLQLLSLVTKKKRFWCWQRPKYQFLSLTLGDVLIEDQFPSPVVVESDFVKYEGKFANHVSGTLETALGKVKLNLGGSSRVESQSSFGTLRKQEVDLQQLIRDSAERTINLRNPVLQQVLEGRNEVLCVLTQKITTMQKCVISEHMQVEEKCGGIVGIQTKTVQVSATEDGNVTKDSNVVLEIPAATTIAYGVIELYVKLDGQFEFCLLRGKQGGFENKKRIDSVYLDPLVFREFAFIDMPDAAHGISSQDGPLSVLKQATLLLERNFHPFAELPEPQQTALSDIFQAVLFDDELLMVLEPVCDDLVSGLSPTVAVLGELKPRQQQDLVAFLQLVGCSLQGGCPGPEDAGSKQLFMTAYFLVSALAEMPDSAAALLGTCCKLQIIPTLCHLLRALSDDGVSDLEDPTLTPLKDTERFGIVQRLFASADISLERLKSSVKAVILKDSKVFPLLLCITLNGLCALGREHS
Experiment: co-IP; 3×Flag-GSDME and HA-tagged ZDHHCs co-transfected into 293T cells; precipitation with anti-Flag antibody (Flag magnetic beads), 4 °C overnight; 20 mM Tris pH 7.5, 150 mM NaCl, 1% Triton X-100; western blot

HA-tagged ZDHHC2 (from UniProt Q9UIJ5 1-367) (enzyme)
binding: binds
